PubChem BioAssay AID743454 | Peter MacCallum Cancer Centre – 2014

Assay: 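Search for knock-downs that restore vorinostat killing in resistant colon cancer cells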 (primary screen)
System: human HCT116-VR colon cancer cells, selected for vorinostat resistance
Reagents: siRNA pool against human genes, 40 nM siRNA pool
Time to read-out: vorinostat for 24 h, read-out about 72 h after transfection
Treatment: vorinostat at 2.5 µM final
Measurement: 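Two measures, CellTiter-Fluor viability and luminescent caspase 3/7 activity, each as fold change against same-plate mock wells, mean of duplicates, then screen-wide robust z-score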
Direction: viability robust z-score: higher = more viable cells than screen typical; caspase robust z-score: higher = more caspase 3/7 activity than screen typical
Call rule: 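a knock-down is a hit when classed RV1 or RV2 for lowered viability, or CA1 or CA2 for caspase activation; those lethal without drug were dropped; hits were retested singly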
The whole screen tested about 18,000 reagents; shown is a part drawn at random. In the full data, 450 (2.5%) are marked active. 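Single biological run; no consistent viability z cut-off exists, so the class columns, not z-scores, define the calls.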 Unmarked entries are inactive. No sequences are given here.

| Target gene | viability hit class | caspase hit class | viability robust z-score | caspase robust z-score |
| --- | --- | --- | --- | --- |
| DBT | no change | no change | -0.26 | -0.84 |
| INMT | no change | no change | 0.53 | -1.27 |
| GRIP1 | no change | no change | 0.2 | -0.75 |
| LOC728919 (retired record) | no change | no change | -0.78 | 3.7 |
| EIF4G1 | no change | no change | -2.58 | -1.7 |
| TSPAN7 | no change | no change | 0.82 | 0.48 |
| EIF3M | no change | no change | -2.74 | 2.76 |
| PARG | no change | no change | 0.24 | -1 |
| SFRP1 | no change | no change | 0.68 | -1.51 |
| CLCF1 | no change | no change | -2.17 | 2.58 |
| KAZN | no change | no change | 0.65 | 4.03 |
| LGALS7B | no change | no change | -0.64 | 1.1 |
| ELAVL1 | no change | no change | 0.36 | -0.22 |
| RAD18 | no change | no change | -0.54 | -0.98 |
| BGLAP | no change | no change | -0.84 | 0.92 |
| SMPDL3B | no change | no change | 0.88 | 0.82 |
| MRPL13 | no change | no change | 1.46 | -1.08 |
| PPDPFL | no change | no change | -0.01 | -0.44 |
| RBP2 | no change | no change | 0.81 | 1.04 |
| GUCA2B | no change | no change | 0.92 | 1.48 |
| MTMR6 | no change | no change | 1.72 | 0.23 |
| RPL28 | no change | no change | -1.72 | -0.48 |
| FEZF2 | no change | no change | -0.09 | 0.26 |
| PRUNE2 | no change | no change | -0.87 | 0.16 |
| ZNF721 | no change | no change | -0.68 | 0.07 |
| COX6B1 | no change | no change | -1.64 | 2.77 |
| OSBPL7 | no change | no change | 0.05 | -0.64 |
| GPR83 | no change | no change | 0.31 | -0.57 |
| VAMP2 | no change | no change | 0.04 | 0 |
| ZNF354A | no change | no change | -0.3 | 0.2 |
| SIGLEC1 | no change | no change | -1.29 | -0.84 |
| SLC2A8 | no change | no change | 0.37 | -0.22 |
| ZNF607 | no change | no change | 1.64 | -1.04 |
| BRCA2 | no change | no change | 0.78 | 0.44 |
| CPSF6 | no change | no change | -0.59 | 0.94 |
| MRPL16 | no change | no change | 0.54 | 2.58 |
| OLFML1 | no change | no change | 0.6 | -1.21 |
| FER | no change | no change | 2.12 | -0.53 |
| ARID3B | no change | no change | -1.72 | -0.17 |
| RFPL2 | no change | no change | -1.62 | 2.46 |
| HTRA1 | no change | no change | -3.33 | 1.62 |
| AQP7 | no change | no change | -0.37 | 1.84 |
| HAGHL | no change | no change | -0.04 | 1.17 |
| GTPBP10 | no change | no change | 0.79 | 1.06 |
| MSC | no change | no change | -0.06 | 0.38 |
| PWWP3B | no change | no change | 0.92 | -1.12 |
| ERCC3 | no change | no change | 0.09 | -0.94 |
| ZNF83 | no change | no change | -0.82 | -0.44 |
| FBXL18 | no change | no change | 0.2 | 4.3 |
| NCOA4 | no change (active) | CA2 (caspase activation) | -3.71 | 5.55 |
| ZBTB43 | no change | no change | -0.73 | 3.39 |
| ZNF695 | no change | no change | 0.92 | -0.7 |
| FGF4 | no change | no change | -0.4 | 0.3 |
| MRPL4 | no change | no change | 0.8 | 0.82 |
| KRTAP20-2 | no change | no change | -1.02 | 2.24 |
| MTHFR | no change | no change | -0.1 | 0.12 |
| OOSP2 | no change | no change | 0.69 | 0.04 |

Reagents listed above with an active call, once more:
| Target gene | viability hit class | caspase hit class | viability robust z-score | caspase robust z-score |
| --- | --- | --- | --- | --- |
| NCOA4 | no change (active) | CA2 (caspase activation) | -3.71 | 5.55 |
